Test results reported in patent publication US20120055467A1, “METERED-DOSE INHALER AND METHOD OF USING THE SAME” (CHIESI FARMACEUTICI S.P.A., priority 2010, published 2012).
Values joined by “and” are separate entries in the source; they are usually repeats but may differ in a detail not shown here. Equal entries are not always repeated. At least one structure is not confirmed: it was looked up by name or label, or the drawing left a doubt.

Experiments:
[1] = Andersen Cascade Impactor (ACI) evaluation of pMDI spray drug delivery characteristics; format: physicochemical
Protocol: Spray characteristics of the system were evaluated by an Andersen cascade impactor fitted with a USP throat (App. 1, USP 33). […] This was repeated twice. Pre- and post-shot weights were recorded. […] The solutions were analysed by using a UPLC/MS (Ultra Performance Liquid Chromatography/Mass Spectrometry) system for the determination of the drug deposition.

[2] = Plume duration measured with in-line PC microphone, dual orifice actuator; format: physicochemical; settings: Ex 8, individual can
Protocol: For Example 8, plume duration was measured using an in-line PC microphone in conjunction with Audacity 1.2.6 software.
Formulation combinations 17a-18a and 17b-18b are fired through the dual orifice actuator, as shown at 121 in FIG. 17B. Plume duration was measured for the simultaneous actuation of two 25 μL valves and two 63 μL valves and compared with plume duration for the individual cans. […] The two formulation combinations were: […]

[3] = Ex 5, Dual-MDI, Formulations 8+3, single 0.22 mm orifice, mean, n=3
[4] = Ex 6, dual can, BDP 25 μL + BUD 100 μL, single 0.22 mm orifice, mean, n=2
[5] = Ex 6, dual can, BDP 50 μL + BUD 50 μL, single 0.22 mm orifice, mean, n=2
[6] = Ex 6, dual can, BDP 100 μL + BUD 25 μL, single 0.22 mm orifice, mean, n=2
[7] = Ex 6, single can, 50 μg dose, metered volume 25 μL, 0.22 mm actuator, mean, n=2
[8] = Ex 6, single can, 50 μg dose, metered volume 50 μL, 0.22 mm actuator, mean, n=2
[9] = Ex 6, single can, 50 μg dose, metered volume 100 μL, 0.22 mm actuator, mean, n=2
[10] = Ex 7, Dual can, Formulations 15+16 simultaneously, dual orifice actuator, mean, n=2
[11] = Ex 7, Single can through dual orifice actuator, mean, n=2
[12] = Ex 9, Dual can, Formulations 17a+18a simultaneously, dual orifice actuator, mean, n=2
[13] = Ex 9, Single can through dual orifice actuator, mean, n=2
[14] = Ex 11, Dual can single orifice, Formulations 9+12, 0.30 mm orifice, mean, n=2
[15] = Ex 11, Single reservoir conventional MDI, 50/50, 0.30 mm orifice, mean, n=2
[16] = Ex 14b, delivered with BDP, dual can through dual orifice test rig
[17] = Ex 14b, delivered with BDP, dual can through dual orifice test rig, listed as Bud
[18] = Ex 14b, single can through dual orifice test rig
[19] = Ex 14b, single can through dual orifice test rig, listed as Bud
[20] = Ex 20, triple reservoir-single orifice prototype (FIG. 16B)

CCCC1O[C@@H]2C[C@H]3[C@@H]4CCC5=CC(=O)C=C[C@]5(C)[C@H]4[C@@H](O)C[C@]3(C)[C@]2(C(=O)CO)O1 (stereo partly drawn) [Budesonide]
Delivered Dose ([1]; Ex 5, Dual-MDI, Formulation 8 (budesonide 400 μg/63 μl) + Formulation 3 (formoterol 6 μg/25 μl), single 0.22 mm orifice, mean, n=3): 386.8 ± 17.6 µg
FPD ≦ 5 μm [1, 3]: 162.1 ± 1.7 µg
FPF [1, 3]: 42.0 ± 1.9%
MMAD [1, 3]: 2.2 ± 0.2 μm
Delivered Dose [1, 4]: 35.4 µg
FPD ≦ 5 μm [1, 4]: 14.5 µg
FPF [1, 4]: 41.0%
MMAD [1, 4]: 2.7 μm
Delivered Dose [1, 5]: 44.8 µg
FPD ≦ 5 μm [1, 5]: 18.0 µg
FPF [1, 5]: 40.1%
MMAD [1, 5]: 2.4 μm
Delivered Dose [1, 6]: 53.6 µg
FPD ≦ 5 μm [1, 6]: 22.0 µg
FPF [1, 6]: 40.9%
MMAD [1, 6]: 2.1 μm
MMAD ([1]; Ex 6, single can configuration, 0.22 mm actuator, across metered volumes 25-100 μL): 3.0-3.1 μm
Delivered Dose ([1]; Ex 6, single can, 50 μg dose, metered volume 25 μL (Formulation 9 / 12), 0.22 mm actuator, mean, n=2): 55.4 µg
FPD ≦ 5 μm [1, 7]: 27.0 µg
FPF [1, 7]: 48.8%
MMAD [1, 7]: 3.0 μm
Delivered Dose ([1]; Ex 6, single can, 50 μg dose, metered volume 50 μL (Formulation 10 / 13), 0.22 mm actuator, mean, n=2): 45.4 µg
FPD ≦ 5 μm [1, 8]: 18.2 µg
FPF [1, 8]: 40.0%
MMAD [1, 8]: 3.1 μm
Delivered Dose ([1]; Ex 6, single can, 50 μg dose, metered volume 100 μL (Formulation 11 / 14), 0.22 mm actuator, mean, n=2): 47.7 µg
FPD ≦ 5 μm [1, 9]: 18.0 µg
FPF [1, 9]: 37.7%
MMAD [1, 9]: 3.0 μm
Delivered Dose ([1]; Ex 7, Dual can, Formulations 15+16 (both with glycerol, 50 μg/25 μl) fired simultaneously through dual orifice actuator (0.22 mm), mean, n=2): 42.7 µg
FPD ≦ 5 μm [1, 10]: 12.4 µg
FPF [1, 10]: 28.9%
MMAD [1, 10]: 2.5 μm
FPD ≦ 5 μm [1, 11]: 23.7 µg
FPF [1, 11]: 44.7%
MMAD [1, 11]: 2.7 μm
Delivered Dose ([1]; Ex 7, Single can, fired individually through dual orifice actuator (0.22 mm), Formulation 15 inverted, Formulation 16 upright, mean, n=2): 53.1 µg
Delivered Dose ([1]; Ex 9, Dual can, Formulation 17a (budesonide, glycerol) + 18a (BDP, no glycerol) simultaneously through dual orifice actuator, mean, n=2): 45.1 µg
FPD ≦ 5 μm [1, 12]: 13.2 µg
FPF [1, 12]: 29.3%
MMAD [1, 12]: 2.4 μm
FPD ≦ 5 μm [1, 13]: 25.6 µg
FPF [1, 13]: 47.1%
MMAD [1, 13]: 3.0 μm
Delivered Dose ([1]; Ex 9, Single can, fired individually through dual orifice actuator, Formulation 17a inverted, 18a upright (50 μg/25 μL), mean, n=2): 54.2 µg
Metered Dose ([1]; Ex 11, Dual can single orifice, Formulation 9 (BDP 50/25) + Formulation 12 (budesonide 50/25, glycerol), 0.30 mm orifice, mean, n=2): 63.1 µg
Delivered Dose [1, 14]: 56.2 µg
FPD [1, 14]: 16.9 µg
FPF [1, 14]: 30.1%
MMAD [1, 14]: 2.9 μm
Metered Dose ([1]; Ex 11, Single reservoir conventional MDI, 50 μg/50 μl (Formulation 10 / 13), 0.30 mm orifice, mean, n=2): 48.7 µg
Delivered Dose [1, 15]: 44.4 µg
FPD [1, 15]: 12.1 µg
FPF [1, 15]: 27.2%
MMAD [1, 15]: 3.2 μm
MMAD ([1]; Ex 13, BDP formulation 25 μl delivered simultaneously with 100 μl budesonide formulation (glycerol), single 0.30 mm orifice): 3.2 μm
MMAD ([1]; Ex 13, conventional single reservoir MDI, 0.30 mm orifice): 3.5 μm
MMAD ([1]; Ex 14a/15, comparative, conventional single reservoir MDI, 0.22 mm orifice, 50 μl valves): 3.1 μm
MMAD ([1]; Ex 14a/15, dual reservoir-dual orifice, impingement angle 60°, orifice diameter 0.25 mm, separation distance 6.0 mm): 2.9 μm
actuator deposition ([1]; Ex 14a, 15° impingement, 6.0 mm separation, stated comparable to the standard actuator): 5.9 µg
MMAD ([1]; Ex 14a, dual reservoir-dual orifice, Formulations 9+12, impingement angle 60°, orifice diameter 0.25 mm, separation distance 17.5 mm): 3.1 μm
MMAD ([1]; Ex 14a, dual reservoir-dual orifice, impingement angle 15°, orifice diameter 0.25 mm, separation distance 6.0 mm): 3.4 μm
MMAD ([1]; Ex 14a, dual reservoir-dual orifice, impingement angle 60°, orifice diameter 0.25 mm, separation distance 9.0 mm): 3.0 μm
MMAD ([1]; Ex 14a, dual reservoir-dual orifice, impingement angle 60°, orifice diameter 0.30 mm, separation distance 2.0 mm): 2.8 μm
Metered Dose ([1]; Ex 14b, Budesonide 50 μg/25 μl, single can through dual orifice test rig (0.25 mm, 6 mm separation, 60° impingement), two determinations, listed as Bud): 59.0 µg and 59.4 µg
FPD [1, 16]: 15.6 µg
MMAD [1, 16]: 2.9 μm
Metered Dose ([1]; Ex 14b, delivered with BDP, dual can through dual orifice test rig (0.25 mm, 6 mm separation, 60° impingement), two determinations, listed as Bud): 59.6 µg and 56.6 µg
Delivered Dose [1, 17]: 44.7 µg and 44.1 µg
FPD [1, 17]: 16.2 µg and 15.0 µg
FPF [1, 17]: 36.4% and 34.0%
FPD [1, 18]: 15.4 µg
MMAD [1, 18]: 2.3 μm
Delivered Dose [1, 19]: 28.1 µg and 32.0 µg
FPD [1, 19]: 15.5 µg and 15.3 µg
FPF [1, 19]: 55.0% and 47.8%
MMAD ([1]; Ex 15, dual reservoir, Formulations 9+12 through a single 0.30 mm diameter orifice): 2.9 μm
Delivered Dose [1, 20]: 19.5 µg
FPD [1, 20]: 7.6 µg
FPF [1, 20]: 38.8%
MMAD [1, 20]: 1.2 μm
Metered Dose ([1]; Ex 20, triple reservoir-single orifice prototype (FIG. 16B), BDP/Formoterol + glycopyrronium bromide + budesonide 50 μg/25 μl): 41.9 µg
Plume duration ([2]; valve size 25 μL (Formulation 18a BDP upright, 17a budesonide inverted)): 0.246 s
Plume duration ([2]; valve size 63 μL (Formulation 18b BDP upright, 17b budesonide inverted)): 0.496 s
